From PubChem BioAssay AID2685 (National Center for Advancing Translational Sciences (NCATS), 2010) come the findings set out here.

The assay in a line: qHTS Assay for Lipid Storage Modulators in Drosophila S3 Cells.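 For cell number change: cells counted by Cell Tracker Red CMTPX staining in the red channel.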 The following applies: BODIPY lipid droplet fluorescence, 18-24 h; for cell number change: measured here: cell count max response, cells fed with added oleic acid. The method, boiled down:
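Laser-scanning cytometry quantifies lipid droplet accumulation (500–530 nm total intensity; droplet/cell object ratio) in oleic acid-fed (400 uM added) Drosophila S3 cells treated with a concentration series. 20 uM Triacsin C defined 100% inhibition.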
For orientation: In qHTS, concentration-response curves come from the screen itself.

The mark [1] stands for this setting: measured here: lipid fluorescence (Fed channel) AC50, cells fed with added oleic acid.
Where [2] appears, read: measured here: cell number channel AC50, cells fed with added oleic acid.

Structures are written as SMILES. The list shows a part of the results. These are further read-outs of the screen, such as a control signal, another cell line or another target. No call is given for them. The list favours compounds with an active or inconclusive main result. The note in brackets gives the kind of curve behind each potency; many fits are weak.

As a reminder, the AC50 is the concentration at which the activity in the assay is half-maximal. A high value points to activity only at high concentration. Take `CCc1nn(CCCC(=O)NCc2ccc(OC(C)C)cc2)c(=O)c2cc3occc3n12`: the cell number change was 1.53%. Further, the AC50 under setting [1] was 0.0651 µM [rising, full curve, poor fit].

Consider `O=C(CN1CCc2ccccc2C1)c1cccs1`, for which the cell number change was -1.49%. Also, the concentration at half-maximal activity (AC50) under setting [1] was 0.82 µM [falling, full curve, poor fit].

Consider `Cc1c(C(C)C)c(=O)n(-c2ccc(S(=O)(=O)NCc3ccccc3)cc2)n1C`, for which the cell number change is -14%.

Take `Cc1ccc(-n2c(=O)c3c(n4cnnc24)-c2ccccc2CC32CCCCC2)cc1`: the cell number change was determined as 48.8%. For the same compound, the AC50 under setting [2] is 29.1 µM [rising, single point].

`O=C(COc1ccccc1[N+](=O)[O-])OCCCOC(=O)COc1ccccc1[N+](=O)[O-]`: the cell number change was found to be 7.6%. In addition, the AC50 under setting [2] is 0.0058 µM [rising, full curve, poor fit].

As to `C=C(C)COc1ccc(-c2[nH]ncc2-c2ccccc2)c(O)c1`, the cell number change was -58.4%. Moreover, the half-maximal activity concentration (AC50) under setting [2] is 20.6 µM [falling, single point]. For the same compound, the AC50 under setting [1] was 20.6 µM [falling, partial curve].

Consider `CCNC(=O)CSc1ncnc2sccc12`, for which the cell number change was determined as 13.4%. In addition, the AC50 under setting [1] is 11.6 µM [rising, partial curve].

For `COc1cc(-c2nc(-c3ccc(-c4ccccc4)nc3OC)no2)cc(OC)c1OC`, the cell number change is -4.73%. Further, the AC50 under setting [2] is 0.103 µM [falling, full curve, poor fit]. Moreover, the half-maximal activity concentration (AC50) under setting [1] was 2.31 µM [rising, partial curve].

`CCOc1ccc(OCCNCc2ccc(OC(C)C(=O)N(C)C)c(OCC)c2)cc1` (stereo not drawn): the concentration at half-maximal activity (AC50) under setting [1] was 2.06 µM [rising, partial curve].

As to `CC(=O)Nc1ccc(S(=O)(=O)NCCC(=O)NCCc2ccc(F)cc2)cc1`, the cell number change turned out to be 14.9%. Also, under setting [1], the half-maximal activity concentration (AC50) is 13 µM [rising, single point].

As for `NC(=O)CC(NC(=O)c1cccc(Br)c1)c1ccc(N2CCN(c3ccc(F)cc3)CC2)c([N+](=O)[O-])c1` (stereo not drawn), the cell number change came to 2.99%. The AC50 under setting [1] was 6.51 µM [rising, single point].

`O=S(=O)(c1ccc(F)cc1)c1nc(-c2ccco2)oc1Nc1ccc(F)cc1`: the cell number change was found to be 13.5%. Further, the half-maximal activity concentration (AC50) under setting [1] was 2.06 µM [rising, full curve, poor fit].

As to `O=C(NCCC1=CCCCC1)c1ccc(Cl)c(S(=O)(=O)N2CCCCC2)c1`, the cell number change was found to be 38%. Besides, the AC50 under setting [2] was 35.5 µM [rising, single point].

`COc1ccc(C(=O)N2CCN(c3ccccn3)CC2)cc1[N+](=O)[O-]`: the cell number change is 25.4%. In addition, under setting [1], the AC50 is 15.8 µM [rising, single point].

As for `C=CCn1c(SCC(=O)NC2CC2)nnc1C1CC1`, the cell number change was determined as 8.56%.

Turning to `Cn1c(=O)[nH]c(=O)c2c1nc(CN1CCN(c3ccc(F)cc3)CC1)n2CCN1CCOCC1`, the cell number change is -49.8%. Besides, the AC50 under setting [2] was 0.206 µM [falling, full curve]. In addition, the AC50 under setting [1] is 29.1 µM [falling, single point].

Take `O=C(COC(=O)CCS(=O)(=O)c1ccccc1)Nc1ccc(N2CCCCC2)cc1`: the cell number change came to 15.6%. The half-maximal activity concentration (AC50) under setting [1] was 0.164 µM [rising, full curve, poor fit].

Consider `CCOc1ccc(OCC)c(-c2c(=O)n(OCc3ccccc3Br)c3ccccc3[n+]2[O-])c1`, for which the cell number change is -21.2%. Besides, under setting [1], the AC50 is 2.59 µM [falling, full curve, poor fit].

With `CO/N=C/c1ccc(N2CCN(C(=O)c3ccc(C)cc3)CC2)c([N+](=O)[O-])c1`, the cell number change was -11.3%. In addition, the AC50 under setting [1] is 18.4 µM [falling, partial curve].

For `Cc1nc(NC(=O)c2ccc(F)cc2)sc1C(=O)Nc1ccc2c(c1)CCC2`, the cell number change came to 22.4%. Also, the AC50 under setting [1] is 25.9 µM [rising, single point].

Take `CN1CCN(CC(=O)N/N=C\c2c[nH]c3ccccc23)CC1`: the cell number change came out at 53.5%. Besides, under setting [2], the AC50 was 29.1 µM [rising, single point].

For `Cc1ccc(/C=N/n2c(-c3cccc(Cl)c3)n[nH]c2=S)o1`, the cell number change was -27.1%. Besides, the half-maximal activity concentration (AC50) under setting [1] is 32.6 µM [falling, single point].

Regarding `CC(C)(C)NC(=O)COC(=O)/C=C/c1ccc(F)cc1`, the cell number change worked out at 21.3%. Also, the half-maximal activity concentration (AC50) under setting [1] was 8.2 µM [rising, partial curve, poor fit].

Regarding `Cc1cccc(NC(=S)N2CCN(S(=O)(=O)c3cccc(F)c3)CC2)c1`, the cell number change turned out to be 24.8%. In addition, the concentration at half-maximal activity (AC50) under setting [1] was 23.1 µM [rising, single point].

For `COCCC1CCCCN1C(=O)c1cc(COc2ccc(-n3cncn3)cc2)on1` (stereo not drawn), the cell number change is -35.1%. Further, under setting [2], the concentration at half-maximal activity (AC50) was 18.4 µM [falling, single point].

Regarding `CCCS(=O)(=O)N1CCCC(C(=O)NCCCN2CCN(c3ccc(F)cc3)CC2)C1` (stereo not drawn), the cell number change is -1.76%. In addition, the concentration at half-maximal activity (AC50) under setting [1] is 0.00461 µM [rising, full curve, poor fit].

`C/C(=N\N1C(=O)c2ccccc2NC1c1ccccc1)c1ccccc1O` (stereo not drawn): the cell number change was found to be 38.7%. Moreover, the AC50 under setting [1] was 29.1 µM [rising, single point].

As for `COc1ccc(NS(=O)(=O)N2CCOCC2)cc1`, the cell number change is 2.89%. For the same compound, the AC50 under setting [1] is 29.1 µM [rising, single point].

Consider `CCn1c(CC(=O)Nc2ccc(Cl)cc2)nnc1SCC(=O)N1CCOCC1`, for which the cell number change came out at 7.03%.

For `COCCN(C(=O)CCN1C(=O)C2CC=CCC2C1=O)c1c(N)n(CC(C)C)c(=O)[nH]c1=O` (stereo not drawn), the cell number change is 2.98%. Besides, the AC50 under setting [1] was 0.291 µM [falling, full curve, poor fit].

In the case of `CCOC(=O)c1[nH]c2cc(OC)c(OC)cc2c1NC(=O)C(C)N1CCN(Cc2ccccc2)CC1` (stereo not drawn), the cell number change is 80.5%. Further, the AC50 under setting [2] is 9.2 µM [rising, partial curve]. Moreover, the half-maximal activity concentration (AC50) under setting [1] is 7.31 µM [rising, partial curve].

As to `Cc1nc(C(F)(F)F)nc(Nc2ccc(N=Nc3ccccc3)cc2)c1C#N`, the cell number change was 30%. Further, under setting [1], the AC50 is 20.6 µM [rising, single point].

Take `O=C(Nc1nc(-c2nc3ccccc3s2)cs1)C1CC1`: the cell number change came to 55.5%. For the same compound, the AC50 under setting [2] is 25.9 µM [rising, single point]. The AC50 under setting [1] is 3.66 µM [rising, full curve].

Regarding `COc1cc2c(cc1OC)C(c1ccc(Br)cc1)N(C(=O)c1ccccc1C(=O)O)CC2` (stereo not drawn), the cell number change was 2.38%.

As to `COc1cccc(NC(=O)C2CCCN2C(=O)Nc2ccccc2F)c1` (stereo not drawn), the cell number change was -1.89%.

On to `O=C(CNC1CCCCC1)Nc1ccc(S(=O)(=O)N2CCCCC2)cc1`, for which the cell number change was -2.14%.

In the case of `O=[N+]([O-])c1ccc(Cl)cc1CN1CCCCCC1`, the cell number change was 16.8%. Under setting [2], the AC50 was 0.206 µM [rising, full curve, poor fit]. For the same compound, the concentration at half-maximal activity (AC50) under setting [1] was 29.1 µM [rising, single point].
